Measured values as given in PubChem BioAssay AID2685 (National Center for Advancing Translational Sciences (NCATS), 2010).
The list shows a part of the results. These are further read-outs of the screen, such as a control signal, another cell line or another target. No call is given for them. Compounds called inactive in the main read-out are mostly missing here. Words in brackets tell the shape of the fitted curve; partial curves, single points and poor fits give uncertain potencies.

Assay: qHTS Assay for Lipid Storage Modulators in Drosophila S3 Cells;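 for cell number change: cells counted by Cell Tracker Red CMTPX staining in the red channel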
Settings: BODIPY lipid droplet fluorescence, 18-24 h; for cell number change: measured here: cell count max response, cells fed with added oleic acid
Procedure, shortened: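 Drosophila S3 cells got compounds at several concentrations plus oleic acid (400 uM solution). Laser-scanning cytometry with 488 nm excitation read lipid droplets at 500-530 nm and cells at 575-640 nm. Percent activity was relative to 20 uM Triacsin C.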

[1] = measured here: cell number channel AC50, cells fed with added oleic acid
[2] = measured here: lipid fluorescence (Fed channel) AC50, cells fed with added oleic acid

| Compound | cell number change [%] | AC50 [1] | AC50 [2] |
| --- | --- | --- | --- |
| Cc1ccc(-c2cc(C(=O)Nc3cnn(C45CC6CC(CC(C6)C4)C5)c3)no2)cc1 | -54.7 | 18.4 µM [falling, partial curve, poor fit] | 32.6 µM [falling, single point] |
| CCOC(=O)c1cccc(NC(=O)CSc2nnc(C3CCCCC3)n2C)c1 | -11.7 |  |  |
| O=C(/C=C/c1c(Cl)cccc1Cl)NCc1ccccc1 | 1.86 | 1.64 µM [rising, partial curve] | 2.06 µM [rising, full curve] |
| Fc1cccc(CNc2ncnc3cc(Cl)ccc23)c1F | -36.5 | 29.1 µM [falling, single point] | 29.1 µM [falling, single point] |
| COC(=O)c1cc(C(=O)c2ccc(Cl)cc2)n2c(=O)/c(=C\N(C)C)sc12 | -4.55 | 0.651 µM [rising, partial curve] | 29.1 µM [rising, single point] |
| COc1ccc(C2=NS(=O)(=O)N(C)C(C(=O)N3CCCCC3)=C2)cc1OC | -14.4 |  |  |
| CCn1cc(/C=C(\NC(=O)c2ccc(C)cc2)C(=O)NCCCN2CCOCC2)c2ccccc21 | 23.2 |  | 29.1 µM [rising, single point] |
| Cc1cc(C(=O)NC2CCCc3c2cnn3-c2cccc(C)c2C)c(C)o1 (stereo not drawn) | -49.4 | 0.206 µM [falling, partial curve] | 0.231 µM [falling, single point] |
| COc1ccc(N(Cc2ccccc2)S(=O)(=O)c2cccc(C(=O)Nc3ncccc3C)c2)cc1 | 30.1 | 1.46 µM [rising, partial curve] | 23.1 µM [rising, partial curve] |
| CCN(CC)C(=O)CSc1nc2ccccc2c(=O)n1OC | -9 |  | 3.66 µM [rising, single point] |
| CN(C)CCCN(C(=O)c1ccc(Br)s1)c1nc2cc3c(cc2s1)OCO3 | 8.9 |  | 0.651 µM [rising, full curve, poor fit] |
| O=C(CCN1CCOCC1)Nc1ccc(F)cc1 | -4.56 |  | 5.17 µM [rising, full curve] |
| Cc1ccc2nc(N3C(=O)C(O)=C(C(=O)c4ccco4)C3c3cccc(O)c3)sc2c1 (stereo not drawn) | -21.1 |  |  |
| CC(=O)c1ccc(N2CCN(S(=O)(=O)c3ccc4c(c3)CC(C)N4C(C)=O)CC2)cc1 (stereo not drawn) | -45.4 | 18.4 µM [falling, single point] | 11.6 µM [falling, partial curve] |
| COc1ccc(NC(=O)N2CCCc3ccccc32)c(OC)c1 | 6.44 | 4.11 µM [rising, single point] |  |
| CCCn1c(CCNc2nc(-c3ccc(OC)cc3)cs2)nc2ccccc21 | 2.27 |  | 0.291 µM [rising, full curve, poor fit] |
| COC(=O)C1=C(O)C2(C(=O)O)CC(C(=O)OC)=C(O)C(C(=O)O)(C1)C2 | -9.67 |  | 0.116 µM [falling, full curve, poor fit] |
| COc1cc(NC(=O)Cc2cccs2)cc(OC)c1 | 14.2 |  | 11.6 µM [rising, partial curve] |
| CCCCn1c(=O)n(Cc2cccc(F)c2)c(=O)c2c1ncn2Cc1ccco1 |  | 6.51 µM [rising, single point] | 6.51 µM [rising, single point] |
| CCOC(=O)C1CCN(C(=O)c2cc(S(=O)(=O)N3CCc4ccccc43)ccc2OC)CC1 | -75 | 29.1 µM [falling, single point] |  |

| Compound | cell number change [%] | AC50 [1] | AC50 [2] |
| --- | --- | --- | --- |
| COc1ccc(NC(=O)COC(=O)CNC(=O)C2CCCCC2)cc1 | -16.9 |  | 0.231 µM [falling, full curve, poor fit] |
| Cc1ccc(NS(=O)(=O)c2cccc(C(=O)O)c2)c(C)c1 | 0.0328 |  |  |
| O=C(Nc1ccc(Cl)cn1)c1cccc2ccccc12 | 2.55 |  | 20.6 µM [rising, partial curve] |
| COC(=O)/C=C1\S/C(=N/NC(=O)c2ccccc2)NC1=O | -17 | 1.46 µM [falling, partial curve] |  |
| COc1ccc(-c2nc(N3CCC(C)CC3)[nH]c(=O)c2C#N)cc1 | -40.7 | 32.6 µM [falling, single point] |  |
| NS(=O)(=O)c1ccc(Cc2ncc(C(F)(F)F)cc2Cl)s1 | 67.9 | 20.6 µM [rising, single point] |  |
| O=C(CSc1nn(-c2ccccc2)c(=S)s1)Nc1ncccn1 | 25.7 |  | 23.1 µM [rising, single point] |
| COc1ccccc1N(CC(=O)N/N=C(\C)c1ccc(F)cc1)S(=O)(=O)c1ccccc1 | 32 | 7.31 µM [rising, partial curve, poor fit] | 2.59 µM [rising, partial curve] |
| O=C(Nc1cc2c(cc1Br)OCCO2)c1cccs1 | -2.14 | 0.461 µM [falling, single point] |  |
| CSc1ccc(CN2CCN(C(=O)c3ccc([N+](=O)[O-])cc3)CC2)cc1 | -36.2 | 16.4 µM [falling, partial curve] | 29.1 µM [falling, single point] |
| O=C(N/N=C/c1ccc(Br)s1)Nc1ccccc1 | -26.1 |  | 0.731 µM [falling, full curve] |
| CO/N=C/C1C(=O)NN=C1c1ccccc1 (stereo not drawn) | 77 | 13 µM [rising, partial curve] |  |
| CC(=O)/C(CN1CCCCC1)=N\O | 0.065 |  |  |
| COc1ccc(-c2cc(C(=O)N/N=C/c3cccnc3)c3cc(C)cc(C)c3n2)cc1 | 75.2 |  |  |
| CC(=O)c1ccc(NC(=O)CSc2ccc(-c3ccc4c(c3)OCO4)nn2)cc1 | 12.6 |  | 0.13 µM [rising, full curve, poor fit] |
| O=C(CC(C(=O)O)c1ccc(Cl)cc1)c1ccc(Br)cc1 (stereo not drawn) | -1.39 |  | 29.1 µM [falling, partial curve] |
| Brc1ccc(-c2csc3ncnc(-n4nnc5ccccc54)c23)cc1 | 24.4 |  |  |
| COc1ccc2nc(NC(=O)c3ccc4ncsc4c3)sc2c1 | -31.2 | 13 µM [falling, single point] | 1.84 µM [rising, partial curve, poor fit] |
| CN(C)c1ccnc(NCc2ccccc2)c1C#N | 113 | 13 µM [rising, partial curve] | 29.1 µM [rising, partial curve] |
| CCCCN(CC)CCNC(=S)Nc1ccc2nc(N3CCN(C)CC3)cc(C)c2c1 | 9.72 |  | 0.103 µM [falling, full curve, poor fit] |

Reprinted at random: two entries already listed.

| Compound | cell number change [%] | AC50 [1] | AC50 [2] |
| --- | --- | --- | --- |
| COC(=O)/C=C1\S/C(=N/NC(=O)c2ccccc2)NC1=O | -17 | 1.46 µM [falling, partial curve] |  |
| CCCCN(CC)CCNC(=S)Nc1ccc2nc(N3CCN(C)CC3)cc(C)c2c1 | 9.72 |  | 0.103 µM [falling, full curve, poor fit] |

Later entries.

| Compound | cell number change [%] | AC50 [1] | AC50 [2] |
| --- | --- | --- | --- |
| S=c1[nH]nc(-c2ccco2)n1/N=C/C(Cl)=C/c1ccccc1 | -54 | 4.61 µM [falling, partial curve] | 7.31 µM [falling, partial curve] |
| CCc1cccc(C)c1NC(=O)C1CC(=O)N(C2CCCC2)C1 (stereo not drawn) | -6.56 |  | 29.1 µM [rising, single point] |
| COc1ccc(C(=O)OCC(=O)NC(=O)NC2CCCC2)cc1OC | -16 |  | 0.82 µM [rising, full curve, poor fit] |
| O=C(NCCCN1CCOCC1)c1ccccc1NS(=O)(=O)c1ccc(F)cc1 |  |  | 5.8 µM [rising, single point] |
| CCOC(=O)N1CCN(C(=O)c2cccc(S(=O)(=O)Nc3ccc(OC)cc3)c2)CC1 | 49.7 | 4.61 µM [falling, partial curve] | 20.6 µM [rising, partial curve] |
| CN(C)S(=O)(=O)c1cccc(C(=O)NCC(C)(C)CNC(=O)c2cccc(S(=O)(=O)N(C)C)c2)c1 | 4.7 |  | 20.6 µM [falling, single point] |
| NC(=O)c1cccc(S(=O)(=O)N2CC(c3ccccc3)CC2=O)c1 (stereo not drawn) | 12 | 0.116 µM [falling, single point] | 0.058 µM [falling, full curve, poor fit] |
| CCS(=O)(=O)Nc1ccc2[nH]c(=O)[nH]c2c1 | -54.2 |  |  |
| Cn1c(=O)n(C)c2cc([N+](=O)[O-])c(N3CCN(C(=O)c4ccccc4)CC3)cc21 | 12.3 |  |  |
| COc1ccc(NS(=O)(=O)c2cc(NC(=O)c3cccs3)ccc2N2CCCC2)cc1 | -9.75 |  | 23.1 µM [rising, partial curve] |
| Cc1nc2ncnn2c(C)c1Cc1ccc(Cl)cc1 | 19.7 |  |  |
| CCn1c(SCC(=O)N2c3ccccc3Sc3ccccc32)nc2c1c(=O)n(C)c(=O)n2C | 18.4 |  |  |
| Cc1ccc(C(=O)Nc2cccc(-c3ccc(N4CCOCC4)nn3)c2)cc1 | -54.2 | 18.4 µM [falling, single point] |  |
| CN(CCOCCOc1ccc2ccccc2c1)Cc1ccccc1 | 31 | 13 µM [rising, single point] |  |
| O=C(C[n+]1cc(Br)cc2ccccc21)c1ccc(F)cc1 | -2.78 |  | 29.1 µM [rising, single point] |
| COC(=O)c1noc(-c2ccc(C)cc2)n1 | 11.1 |  | 6.51 µM [rising, single point] |
| Cc1ccc(NS(=O)(=O)c2ccc(N/N=C/c3ccccc3OCC(=O)O)c([N+](=O)[O-])c2)c(C)c1 | 11.3 |  | 32.6 µM [rising, partial curve, poor fit] |
| COc1ccc(NC(=O)Cn2nc(Cc3cccnc3)c3ccccc3c2=O)cc1OC |  |  | 6.51 µM [rising, single point] |
| O=C(NCCc1ccc(C(F)(F)F)cc1)C1CCC(=O)N(CCc2cccc(F)c2)C1 (stereo not drawn) | 21.1 |  |  |
